The supplement of paper PMC10849652
The list shows a part of the results.

Amino acid sequences for entries named in this document (tags omitted). A change or cut given only in a name is not applied to a line headed by its entry.
UniProt O95881: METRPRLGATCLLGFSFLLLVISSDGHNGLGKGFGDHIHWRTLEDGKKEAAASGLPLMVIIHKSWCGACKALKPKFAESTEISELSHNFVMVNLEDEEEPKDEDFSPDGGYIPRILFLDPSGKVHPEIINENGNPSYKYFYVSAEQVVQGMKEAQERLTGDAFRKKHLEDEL
UniProt Q8NBM4: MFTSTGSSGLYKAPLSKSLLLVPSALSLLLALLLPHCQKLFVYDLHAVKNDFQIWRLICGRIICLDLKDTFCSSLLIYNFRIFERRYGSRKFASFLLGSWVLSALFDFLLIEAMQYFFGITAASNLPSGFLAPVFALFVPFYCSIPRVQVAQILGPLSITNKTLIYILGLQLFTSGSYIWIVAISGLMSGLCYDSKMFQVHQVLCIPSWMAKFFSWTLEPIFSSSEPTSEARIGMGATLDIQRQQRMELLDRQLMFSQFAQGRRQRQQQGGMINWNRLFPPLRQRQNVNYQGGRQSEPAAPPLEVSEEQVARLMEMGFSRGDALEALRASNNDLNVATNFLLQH
UniProt P62256: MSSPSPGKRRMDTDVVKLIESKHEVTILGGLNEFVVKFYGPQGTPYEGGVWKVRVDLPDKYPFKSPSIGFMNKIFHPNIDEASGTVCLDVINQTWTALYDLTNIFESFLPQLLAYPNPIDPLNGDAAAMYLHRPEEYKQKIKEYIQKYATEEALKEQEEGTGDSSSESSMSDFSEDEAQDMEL
UniProt Q9BUF5, whole entry, looked up: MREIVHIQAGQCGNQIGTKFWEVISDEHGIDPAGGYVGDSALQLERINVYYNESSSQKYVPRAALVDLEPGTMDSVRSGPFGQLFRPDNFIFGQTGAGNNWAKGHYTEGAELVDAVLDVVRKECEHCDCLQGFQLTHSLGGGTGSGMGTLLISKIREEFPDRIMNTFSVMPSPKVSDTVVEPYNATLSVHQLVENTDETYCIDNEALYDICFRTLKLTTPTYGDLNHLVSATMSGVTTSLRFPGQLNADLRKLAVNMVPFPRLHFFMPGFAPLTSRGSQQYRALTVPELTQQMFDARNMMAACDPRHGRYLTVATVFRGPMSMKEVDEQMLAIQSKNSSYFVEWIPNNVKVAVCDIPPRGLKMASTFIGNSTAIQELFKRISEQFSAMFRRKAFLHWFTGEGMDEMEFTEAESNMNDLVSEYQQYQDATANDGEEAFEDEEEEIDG
UniProt P61081: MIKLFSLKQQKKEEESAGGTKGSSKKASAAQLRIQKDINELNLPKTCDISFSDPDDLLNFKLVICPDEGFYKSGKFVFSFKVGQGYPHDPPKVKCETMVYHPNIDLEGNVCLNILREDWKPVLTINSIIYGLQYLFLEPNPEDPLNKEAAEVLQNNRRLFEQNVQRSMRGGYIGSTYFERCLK
UniProt Q9NUQ3: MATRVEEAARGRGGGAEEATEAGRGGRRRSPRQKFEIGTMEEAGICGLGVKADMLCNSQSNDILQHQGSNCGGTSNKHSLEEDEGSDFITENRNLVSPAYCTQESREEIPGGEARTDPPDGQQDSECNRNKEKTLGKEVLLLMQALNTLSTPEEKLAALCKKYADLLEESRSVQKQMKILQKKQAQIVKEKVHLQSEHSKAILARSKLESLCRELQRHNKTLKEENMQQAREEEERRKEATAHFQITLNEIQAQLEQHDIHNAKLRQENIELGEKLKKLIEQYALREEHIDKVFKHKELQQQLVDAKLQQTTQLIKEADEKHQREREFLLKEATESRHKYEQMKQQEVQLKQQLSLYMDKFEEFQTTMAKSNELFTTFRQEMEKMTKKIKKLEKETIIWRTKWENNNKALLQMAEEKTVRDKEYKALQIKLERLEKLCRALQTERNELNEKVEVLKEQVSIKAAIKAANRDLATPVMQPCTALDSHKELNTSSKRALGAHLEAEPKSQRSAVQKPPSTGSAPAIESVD
UniProt P62253: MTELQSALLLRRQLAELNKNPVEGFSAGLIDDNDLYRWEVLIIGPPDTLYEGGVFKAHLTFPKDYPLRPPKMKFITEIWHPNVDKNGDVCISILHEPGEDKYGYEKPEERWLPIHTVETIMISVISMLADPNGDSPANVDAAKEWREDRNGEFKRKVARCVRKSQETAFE
UniProt Q8WVN8: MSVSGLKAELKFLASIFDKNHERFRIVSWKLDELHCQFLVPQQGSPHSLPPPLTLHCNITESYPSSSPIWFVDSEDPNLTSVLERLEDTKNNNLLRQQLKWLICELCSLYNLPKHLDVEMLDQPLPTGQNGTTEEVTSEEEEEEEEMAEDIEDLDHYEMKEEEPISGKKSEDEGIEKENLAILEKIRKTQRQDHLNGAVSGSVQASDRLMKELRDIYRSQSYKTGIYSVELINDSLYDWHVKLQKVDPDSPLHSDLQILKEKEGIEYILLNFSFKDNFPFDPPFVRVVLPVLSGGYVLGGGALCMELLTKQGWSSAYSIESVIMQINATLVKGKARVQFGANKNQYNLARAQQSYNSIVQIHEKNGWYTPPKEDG
UniProt Q9H4B7, whole entry, looked up: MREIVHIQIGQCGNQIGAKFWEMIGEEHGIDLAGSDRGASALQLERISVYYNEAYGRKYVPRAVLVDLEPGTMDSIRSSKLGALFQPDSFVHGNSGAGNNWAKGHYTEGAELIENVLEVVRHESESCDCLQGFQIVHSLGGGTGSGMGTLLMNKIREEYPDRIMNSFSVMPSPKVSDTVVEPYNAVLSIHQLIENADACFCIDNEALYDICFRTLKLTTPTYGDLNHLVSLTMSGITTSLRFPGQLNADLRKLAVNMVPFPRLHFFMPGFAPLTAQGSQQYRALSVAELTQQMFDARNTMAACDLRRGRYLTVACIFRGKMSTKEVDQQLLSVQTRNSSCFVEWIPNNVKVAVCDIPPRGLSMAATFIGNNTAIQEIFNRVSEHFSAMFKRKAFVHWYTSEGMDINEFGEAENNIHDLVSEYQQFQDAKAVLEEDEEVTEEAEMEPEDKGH
UniProt Q8TBC4: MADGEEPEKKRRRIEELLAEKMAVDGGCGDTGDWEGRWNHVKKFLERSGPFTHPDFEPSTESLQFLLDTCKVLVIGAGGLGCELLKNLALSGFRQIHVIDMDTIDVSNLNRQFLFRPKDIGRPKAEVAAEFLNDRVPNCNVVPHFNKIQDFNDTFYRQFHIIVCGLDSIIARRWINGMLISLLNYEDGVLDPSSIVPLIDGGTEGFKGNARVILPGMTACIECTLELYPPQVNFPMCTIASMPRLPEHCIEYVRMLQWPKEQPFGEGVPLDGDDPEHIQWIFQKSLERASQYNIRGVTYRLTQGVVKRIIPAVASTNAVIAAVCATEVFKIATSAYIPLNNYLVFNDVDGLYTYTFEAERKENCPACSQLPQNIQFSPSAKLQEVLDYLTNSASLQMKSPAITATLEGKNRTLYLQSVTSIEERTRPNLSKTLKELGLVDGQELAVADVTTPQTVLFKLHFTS
UniProt Q3KQV9: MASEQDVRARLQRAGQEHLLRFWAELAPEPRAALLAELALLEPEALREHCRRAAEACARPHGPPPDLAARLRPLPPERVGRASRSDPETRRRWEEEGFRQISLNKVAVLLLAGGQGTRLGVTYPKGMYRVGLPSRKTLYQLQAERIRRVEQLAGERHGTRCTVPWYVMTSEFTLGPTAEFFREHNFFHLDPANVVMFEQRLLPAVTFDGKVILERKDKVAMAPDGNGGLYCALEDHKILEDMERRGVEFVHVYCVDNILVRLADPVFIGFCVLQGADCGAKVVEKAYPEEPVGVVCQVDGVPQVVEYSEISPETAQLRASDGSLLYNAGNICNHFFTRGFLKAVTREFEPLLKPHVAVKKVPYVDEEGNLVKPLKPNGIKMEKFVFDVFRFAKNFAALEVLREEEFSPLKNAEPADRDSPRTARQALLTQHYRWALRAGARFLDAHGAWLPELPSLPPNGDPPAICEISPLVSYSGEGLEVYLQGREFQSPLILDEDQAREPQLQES
UniProt Q9BTX7: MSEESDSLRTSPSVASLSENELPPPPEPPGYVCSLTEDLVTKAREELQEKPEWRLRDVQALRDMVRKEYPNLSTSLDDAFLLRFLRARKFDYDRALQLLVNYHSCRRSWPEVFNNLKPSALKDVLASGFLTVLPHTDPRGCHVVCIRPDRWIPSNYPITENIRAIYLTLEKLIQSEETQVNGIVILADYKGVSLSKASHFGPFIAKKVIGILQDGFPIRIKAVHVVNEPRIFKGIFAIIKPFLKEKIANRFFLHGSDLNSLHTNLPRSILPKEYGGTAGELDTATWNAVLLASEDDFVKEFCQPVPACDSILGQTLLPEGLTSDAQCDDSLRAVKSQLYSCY
UniProt Q9UHD9, whole entry, looked up: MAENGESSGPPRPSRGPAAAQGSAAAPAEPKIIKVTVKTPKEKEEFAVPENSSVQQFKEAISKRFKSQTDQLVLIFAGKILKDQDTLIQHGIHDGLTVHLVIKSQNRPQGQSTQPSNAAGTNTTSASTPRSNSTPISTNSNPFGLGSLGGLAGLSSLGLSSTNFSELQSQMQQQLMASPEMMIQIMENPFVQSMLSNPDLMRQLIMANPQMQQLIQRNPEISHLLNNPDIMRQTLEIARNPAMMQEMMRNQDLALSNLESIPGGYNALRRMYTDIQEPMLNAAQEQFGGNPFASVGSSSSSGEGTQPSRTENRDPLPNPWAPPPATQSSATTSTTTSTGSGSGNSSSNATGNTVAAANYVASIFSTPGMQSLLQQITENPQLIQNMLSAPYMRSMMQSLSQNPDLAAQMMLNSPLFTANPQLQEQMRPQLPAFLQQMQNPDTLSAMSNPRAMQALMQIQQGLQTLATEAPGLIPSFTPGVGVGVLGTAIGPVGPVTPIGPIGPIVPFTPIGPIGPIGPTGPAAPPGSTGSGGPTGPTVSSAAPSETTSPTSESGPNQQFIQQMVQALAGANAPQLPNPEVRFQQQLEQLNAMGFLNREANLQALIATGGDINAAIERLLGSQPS
UniProt Q99757: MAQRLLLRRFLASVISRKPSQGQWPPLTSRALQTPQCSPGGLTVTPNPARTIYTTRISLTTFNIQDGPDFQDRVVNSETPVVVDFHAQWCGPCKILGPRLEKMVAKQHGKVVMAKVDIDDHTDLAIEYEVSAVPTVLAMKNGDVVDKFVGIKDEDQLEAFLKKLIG
UniProt P40222: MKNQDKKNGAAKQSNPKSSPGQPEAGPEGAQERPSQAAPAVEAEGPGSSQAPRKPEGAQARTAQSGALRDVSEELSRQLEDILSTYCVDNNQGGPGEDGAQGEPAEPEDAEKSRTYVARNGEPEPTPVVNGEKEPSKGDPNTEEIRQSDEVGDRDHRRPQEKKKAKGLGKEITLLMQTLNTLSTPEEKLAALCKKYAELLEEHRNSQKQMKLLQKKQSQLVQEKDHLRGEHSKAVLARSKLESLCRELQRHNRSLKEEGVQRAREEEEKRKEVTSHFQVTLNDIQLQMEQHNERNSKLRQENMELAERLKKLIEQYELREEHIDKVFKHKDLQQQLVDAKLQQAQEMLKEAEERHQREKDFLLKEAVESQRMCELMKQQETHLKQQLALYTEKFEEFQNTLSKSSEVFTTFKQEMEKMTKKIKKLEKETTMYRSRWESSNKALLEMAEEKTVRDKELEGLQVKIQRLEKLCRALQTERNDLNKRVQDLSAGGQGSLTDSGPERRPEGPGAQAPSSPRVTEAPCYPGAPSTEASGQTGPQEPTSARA
UniProt O15042: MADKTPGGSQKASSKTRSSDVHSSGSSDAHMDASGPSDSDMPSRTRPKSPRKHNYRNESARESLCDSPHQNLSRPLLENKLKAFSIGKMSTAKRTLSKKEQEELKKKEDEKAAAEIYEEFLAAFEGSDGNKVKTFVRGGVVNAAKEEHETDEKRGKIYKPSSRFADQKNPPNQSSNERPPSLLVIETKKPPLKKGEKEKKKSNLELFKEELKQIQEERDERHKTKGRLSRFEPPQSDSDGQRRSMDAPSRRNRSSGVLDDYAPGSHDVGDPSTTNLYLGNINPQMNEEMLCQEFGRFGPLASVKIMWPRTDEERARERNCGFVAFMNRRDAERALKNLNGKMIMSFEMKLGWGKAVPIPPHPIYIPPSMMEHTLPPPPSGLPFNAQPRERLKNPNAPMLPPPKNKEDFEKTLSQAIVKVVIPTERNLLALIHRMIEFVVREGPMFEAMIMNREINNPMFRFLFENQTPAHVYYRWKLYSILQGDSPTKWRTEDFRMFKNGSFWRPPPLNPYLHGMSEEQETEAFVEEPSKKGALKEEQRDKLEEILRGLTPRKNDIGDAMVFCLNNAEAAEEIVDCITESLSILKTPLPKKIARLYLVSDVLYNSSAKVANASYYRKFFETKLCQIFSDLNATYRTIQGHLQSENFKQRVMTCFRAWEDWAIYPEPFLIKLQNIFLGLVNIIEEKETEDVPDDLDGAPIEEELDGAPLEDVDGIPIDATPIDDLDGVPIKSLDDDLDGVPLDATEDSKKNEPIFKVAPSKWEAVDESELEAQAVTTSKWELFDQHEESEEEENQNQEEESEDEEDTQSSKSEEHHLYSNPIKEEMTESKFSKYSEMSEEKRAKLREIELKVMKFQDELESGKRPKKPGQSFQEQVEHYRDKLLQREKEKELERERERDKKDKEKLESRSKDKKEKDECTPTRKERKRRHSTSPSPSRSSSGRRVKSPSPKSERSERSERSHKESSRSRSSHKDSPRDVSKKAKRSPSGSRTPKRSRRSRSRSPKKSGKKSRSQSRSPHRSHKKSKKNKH

These targets were tested with C1=CC=C(C=C1)[C@H](COC2=CC3=C(C=C2)NC(=O)N3)NC(=O)C4=CC=CN(C4=O)CC5=CC(=C(C=C5)F)F (assay: log2 fold change, soluble protein after heating vs DMSO (PISA); higher = thermal stabilisation; K562 lysate, 10 uM; active = over 0.2 and 3.5 SD of the protein, either way, in both replicates (recomputed)).
Outline: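 Thermal stability, expressed as log-two fold change relative to solvent controls, is given from duplicates. Crude K562 extract in PBS pH 7.4 with 1 mM MgCl2, at 1 mg/mL protein, was treated with 10 μM compound for 30 min and heated in aliquots for 3 min across 48°C-58°C. After pooling, adjustment to 0.5% NP-40 at 4°C and centrifugation at 21,000xg for 90 min, supernatant protein was measured by TMTpro 16plex LC-MS/MS with channel sums equalised.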

Row | Target | log2 fold change
1 | TXNDC12 (UniProt O95881) | inactive: -0.044
2 | UBAC2 (UniProt Q8NBM4) | inactive: -0.023
3 | UBE2H (UniProt P62256) | inactive: 0.024
4 | TUBB6 (UniProt K7ES63) | inactive: -0.115
5 | TUBB4B (UniProt P68371) | inactive: 0.001
6 | TUBB6 (UniProt Q9BUF5) | inactive: -0.005
7 | UBE2M (UniProt P61081) | inactive: -0.028
8 | TXLNG (UniProt Q9NUQ3) | inactive: 0.007
9 | UBE2G1 (UniProt P62253) | inactive: -0.029
10 | TYW3 (UniProt Q6IPR3) | inactive: 0.082
11 | UBE2Q2 (UniProt Q8WVN8) | inactive: 0.026
12 | TUBB1 (UniProt Q9H4B7) | inactive: -0.005
13 | UBA3 (UniProt Q8TBC4) | inactive: -0.023
14 | UAP1L1 (UniProt Q3KQV9) | inactive: -0.091
15 | UBXN2A (UniProt P68543) | inactive: -0.203
16 | TTPAL (UniProt Q9BTX7) | inactive: -0.02
17 | TXNRD1 isoform 7 (UniProt Q16881) | inactive: 0.106
18 | UBQLN2 (UniProt Q9UHD9) | inactive: -0.113
19 | TXN2 (UniProt Q99757) | inactive: 0.082
20 | TXNIP (UniProt Q9H3M7) | inactive: 0.056
21 | UBE2NL (UniProt Q5JXB2) | inactive: -0.031
22 | TXLNA (UniProt P40222) | inactive: 0.012
23 | U2SURP (UniProt O15042) | inactive: -0.003

Pulled one by one from above, 2 records:
Row | Target | log2 fold change
21 | UBE2NL (UniProt Q5JXB2) | inactive: -0.031
4 | TUBB6 (UniProt K7ES63) | inactive: -0.115
